Consider four molecules from article PMC3126838.

Assay [1] deals with T1, Rrp6p as a two-hybrid fusion (S. cerevisiae) (UniProt Q12149).
T1 sequence: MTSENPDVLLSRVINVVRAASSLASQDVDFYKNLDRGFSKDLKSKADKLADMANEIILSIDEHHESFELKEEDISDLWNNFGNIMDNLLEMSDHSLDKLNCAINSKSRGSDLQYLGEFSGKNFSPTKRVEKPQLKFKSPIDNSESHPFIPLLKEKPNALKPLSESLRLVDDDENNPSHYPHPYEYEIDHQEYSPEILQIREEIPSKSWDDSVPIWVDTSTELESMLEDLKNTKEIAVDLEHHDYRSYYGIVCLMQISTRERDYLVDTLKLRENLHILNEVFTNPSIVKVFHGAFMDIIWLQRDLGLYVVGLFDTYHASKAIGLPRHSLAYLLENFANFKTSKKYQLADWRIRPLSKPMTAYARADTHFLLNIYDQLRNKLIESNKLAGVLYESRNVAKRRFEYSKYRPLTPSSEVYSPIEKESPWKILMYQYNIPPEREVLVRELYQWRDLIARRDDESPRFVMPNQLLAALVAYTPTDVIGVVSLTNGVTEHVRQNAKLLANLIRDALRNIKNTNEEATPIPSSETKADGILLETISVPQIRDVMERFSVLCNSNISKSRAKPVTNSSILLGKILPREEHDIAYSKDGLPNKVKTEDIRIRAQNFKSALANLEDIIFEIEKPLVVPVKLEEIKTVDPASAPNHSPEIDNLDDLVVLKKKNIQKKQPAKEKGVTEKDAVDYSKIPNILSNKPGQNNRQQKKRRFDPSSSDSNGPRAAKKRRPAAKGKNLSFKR
As to the kind of experiment: two-hybrid; data not shown; Nop8p tested against exosome subunits.

For assay [2], the target named is T2, Trf4p as a two-hybrid fusion (S. cerevisiae) (UniProt P53632).
T2 sequence: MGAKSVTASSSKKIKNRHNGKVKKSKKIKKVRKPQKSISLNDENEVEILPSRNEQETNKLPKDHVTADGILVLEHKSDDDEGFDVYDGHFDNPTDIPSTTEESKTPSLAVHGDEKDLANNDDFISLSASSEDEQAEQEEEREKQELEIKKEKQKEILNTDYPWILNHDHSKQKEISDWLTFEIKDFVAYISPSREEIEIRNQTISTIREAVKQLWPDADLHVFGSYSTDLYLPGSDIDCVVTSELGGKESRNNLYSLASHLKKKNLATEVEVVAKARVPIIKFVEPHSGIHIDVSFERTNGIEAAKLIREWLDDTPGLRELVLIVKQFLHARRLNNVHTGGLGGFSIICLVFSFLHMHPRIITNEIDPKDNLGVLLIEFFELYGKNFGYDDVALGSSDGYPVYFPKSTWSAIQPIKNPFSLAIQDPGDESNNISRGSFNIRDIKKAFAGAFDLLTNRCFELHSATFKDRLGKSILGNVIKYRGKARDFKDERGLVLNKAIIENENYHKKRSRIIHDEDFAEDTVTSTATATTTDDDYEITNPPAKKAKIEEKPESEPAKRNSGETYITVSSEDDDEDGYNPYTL
As to the kind of experiment: two-hybrid; data not shown; Nop8p tested against TRAMP proteins.

In assay [3] the target is T3, TAP-Rrp43p (S. cerevisiae) (UniProt P25359).
T3 sequence: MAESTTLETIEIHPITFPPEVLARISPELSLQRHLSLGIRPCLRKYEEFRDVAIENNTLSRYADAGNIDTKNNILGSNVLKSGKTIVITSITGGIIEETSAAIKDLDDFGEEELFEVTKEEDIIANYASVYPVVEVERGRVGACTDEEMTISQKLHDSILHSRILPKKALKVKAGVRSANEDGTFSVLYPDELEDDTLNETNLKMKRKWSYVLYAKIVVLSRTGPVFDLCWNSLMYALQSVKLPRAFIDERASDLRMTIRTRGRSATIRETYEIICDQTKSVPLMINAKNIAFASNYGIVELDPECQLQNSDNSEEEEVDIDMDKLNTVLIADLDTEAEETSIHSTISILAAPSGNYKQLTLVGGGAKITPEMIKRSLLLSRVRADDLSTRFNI
As to the kind of experiment: co-IP; TAP-tagged protein from yeast total extract on IgG-Sepharose, 2 h at 4°C, washed with TMN buffer (10 mM Tris pH 7.6, 100 mM NaCl, 5 mM MgCl2, 0.1% Nonidet P-40), eluted with TEV protease; immunoblot for a second subunit.

For assay [4], the target named is T4, TAP-Nop58p (S. cerevisiae), Q12499.
T4 chain: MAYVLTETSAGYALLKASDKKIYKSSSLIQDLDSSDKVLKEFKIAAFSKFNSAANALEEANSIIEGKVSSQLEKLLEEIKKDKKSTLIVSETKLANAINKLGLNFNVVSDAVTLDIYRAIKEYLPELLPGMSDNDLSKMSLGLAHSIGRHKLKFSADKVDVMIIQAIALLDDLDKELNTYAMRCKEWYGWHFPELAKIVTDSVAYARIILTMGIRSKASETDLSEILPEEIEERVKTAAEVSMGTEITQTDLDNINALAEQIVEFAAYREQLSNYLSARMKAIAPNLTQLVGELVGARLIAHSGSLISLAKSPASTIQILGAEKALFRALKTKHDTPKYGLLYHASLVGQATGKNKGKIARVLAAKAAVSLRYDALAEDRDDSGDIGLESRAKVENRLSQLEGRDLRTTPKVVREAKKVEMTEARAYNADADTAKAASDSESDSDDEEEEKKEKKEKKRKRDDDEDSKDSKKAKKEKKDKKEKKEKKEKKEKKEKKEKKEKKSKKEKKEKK
The assay is described as above. Particulars: remark: other sources report otherwise.

Assay [5] concerns the target T5, Nip7p fused to the lexA DNA binding domain (S. cerevisiae) (UniProt Q08962).
T5 sequence: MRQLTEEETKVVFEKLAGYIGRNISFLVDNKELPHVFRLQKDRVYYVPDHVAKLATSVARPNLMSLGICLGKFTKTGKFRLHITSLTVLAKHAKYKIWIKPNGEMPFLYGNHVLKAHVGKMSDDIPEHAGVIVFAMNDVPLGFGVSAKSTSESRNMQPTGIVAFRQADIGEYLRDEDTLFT
As to the kind of experiment: two-hybrid; Nop8p truncation mutants fused to Gal4p AD, Nip7p fused to lexA BD; host strain L40; reporters HIS3 (-His, 1 mM 3-aminotriazole) and lacZ (X-Gal).

Results are given in words; binding and its absence hold for the method and conditions named. For some assays here: In cells and extracts the contact can be indirect. Some results given as binding are weak or reduced against the parent protein; the word gives no strength. For some assays here: Tags and fused reporters may be left off the sequences shown.

B1: Nop8p as a two-hybrid fusion (protein, UniProt Q08287 1-484)
chain: MDSVIQKRIFVGNIFHNADDCYSELLDRFGKFGDCQDFQFEKHNHFAFIDIRFNDEADFNKLRKSFNNVKFKGNILKVDEAKPNWESTWAVQHAKDLKEDIILNAKMKKKNWQHYKKMENVAKSWKDHKEVIAGRMREAPRKRSQLRNITFRINVNGSLKVYKCYKTKLWGYERNKELNDLVYKFTNNFWKNGYNHIVDRLDYSRAVKTVRFKNGLKQLTVSKDENVCSGEMDSDENMSEEEKEKNNVILNDLLKDFDFDKPMTLNDSDEELLTEQRKGEEEEEEEEEKEVNAPEYENVNKTKDQSTLPQEKPEERKEQDEGDGQEDNEFIPTFTKEIGQGTISNTETLRNLFNPNEAEPVSQFKLIEDSDNDIDHAKDVDVNQLEEEVSKSSDTLGLTSAPVPHVSRDKDNKNFLFFPHLQSPFLVGQTQLSKVRAPGRETMLSNWDEEFWANRGNWTRDMRRKMKDALKHRKRKQSKSGLLL
Take B1: the binding entry in assay [1] is “binds”; in assay [2] it was “binds weakly”.

B2: Mtr3p (protein, UniProt P48240 1-250)
chain: MNVQDRRRLLGPAAAKPMAFSNTTTHVPEKKSTDLTPKGNESEQELSLHTGFIENCNGSALVEARSLGHQTSLITAVYGPRSIRGSFTSQGTISIQLKNGLLEKYNTNELKEVSSFLMGIFNSVVNLSRYPKSGIDIFVYLTYDKDLTNNPQDDDSQSKMMSSQISSLIPHCITSITLALADAGIELVDMAGAGEANGTVVSFIKNGEEIVGFWKDDGDDEDLLECLDRCKEQYNRYRDLMISCLMNQET
Take B2: in assay [3], the binding entry is “binds”.

B3: Nop1p, P15646 1-327 (protein)
chain: MSFRPGSRGGSRGGSRGGFGGRGGSRGGARGGSRGGFGGRGGSRGGARGGSRGGFGGRGGSRGGARGGSRGGRGGAAGGARGGAKVVIEPHRHAGVYIARGKEDLLVTKNMAPGESVYGEKRISVEEPSKEDGVPPTKVEYRVWNPFRSKLAAGIMGGLDELFIAPGKKVLYLGAASGTSVSHVSDVVGPEGVVYAVEFSHRPGRELISMAKKRPNIIPIIEDARHPQKYRMLIGMVDCVFADVAQPDQARIIALNSHMFLKDQGGVVISIKANCIDSTVDAETVFAREVQKLREERIKPLEQLTLEPYERDHCIVVGRYMRSGLKK
As to B3, the binding entry in assay [4] was “binds”.

B4: C-Nop8p (Nop8p residues 221-484) fused to the Gal4p transcription activation domain (domain or fragment, UniProt Q08287 221-484)
chain: VSKDENVCSGEMDSDENMSEEEKEKNNVILNDLLKDFDFDKPMTLNDSDEELLTEQRKGEEEEEEEEEKEVNAPEYENVNKTKDQSTLPQEKPEERKEQDEGDGQEDNEFIPTFTKEIGQGTISNTETLRNLFNPNEAEPVSQFKLIEDSDNDIDHAKDVDVNQLEEEVSKSSDTLGLTSAPVPHVSRDKDNKNFLFFPHLQSPFLVGQTQLSKVRAPGRETMLSNWDEEFWANRGNWTRDMRRKMKDALKHRKRKQSKSGLLL
B4: in assay [5], the binding entry was “binds”.
